Some of the results follow.
target: OsWRKY34 (Oryza sativa, UniProt Q0JBA9 1-250); experiment: protein-binding microarray (RPBM); PBS, 2% BSA, 51.3 ng/ul salmon testes DNA, 50 uM zinc acetate, 200 nM TF, 25 C, 1 h; high values mean tight binding; details: protein: recombinant; tags: N-terminal polyhistidine and DsRed monomer fusion (pET32a); label: CyDye5-dUTP incorporated in the synthesized complementary strand; 3' TTTTT single-stranded linker to array surface; dsDNA, one strand shown
In short: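 In PBS with 2% BSA, salmon testes DNA and 50 µM zinc acetate, 200 nM protein was incubated on a custom Agilent array at 25 °C for 1 h and then washed off. The array had been made double-stranded by primer extension with Cy5-dUTP and blocked with 2% BSA. The proteins were transcription factors fused N-terminally to polyhistidine and DsRed, expressed in E. coli BL21-CodonPlus and purified on Ni–NTA. The binding signal is per-feature fluorescence intensity (arbitrary units) from an Axon 4000B scanner.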

The chains behind the UniProt entries cited, without tags or fusion partners.
UniProt Q0JBA9, entry or part of it: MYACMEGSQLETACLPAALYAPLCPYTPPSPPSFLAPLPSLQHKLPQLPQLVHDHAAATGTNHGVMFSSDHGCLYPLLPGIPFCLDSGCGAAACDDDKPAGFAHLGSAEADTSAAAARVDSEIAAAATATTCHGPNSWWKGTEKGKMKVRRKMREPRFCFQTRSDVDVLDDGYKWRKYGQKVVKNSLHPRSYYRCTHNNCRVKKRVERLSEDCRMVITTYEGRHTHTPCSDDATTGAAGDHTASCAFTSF

| Sequence | binding signal |
| --- | --- |
| GATTTGCTACTCTTAATCTATCGGTGTCTGATCTAATCAACGGAGTCACCTAGTGCAG | 9190 fluorescence intensity (a.u.) |
| GTGCGGCCTGGGTGGGTGCGTCTTTTCGCTTCTCCTTTTCCGGAGTCACCTAGTGCAG | 13500 fluorescence intensity (a.u.) |
| TTTAAATGCCTTCGTTACCTTTACTCCGAGTGACATTCATCGGAGTCACCTAGTGCAG | 9370 fluorescence intensity (a.u.) |
| GTGTTGGTACTAGAATGCTGGTTTTAAAGTGGAGATTAGTCGGAGTCACCTAGTGCAG | 9240 fluorescence intensity (a.u.) |
| AATGGATCCCACACCGATTTTTCACCTTGTGTTGCCACGTCGGAGTCACCTAGTGCAG | 9430 fluorescence intensity (a.u.) |
| CTTCCACGTCTCGTCGCTTCCCGCAATTTTTTCAGTCATGCGGAGTCACCTAGTGCAG | 8610 fluorescence intensity (a.u.) |
| ATGTATTATCCCATCCATCCAGTACTAGATATTTATATTTCGGAGTCACCTAGTGCAG | 8700 fluorescence intensity (a.u.) |
| ACCTCCACGATTTCTCGCGCCGCCGCCGCCGCCGCCGCCGCGGAGTCACCTAGTGCAG | 9420 fluorescence intensity (a.u.) |
| AAGTATCCTAGCTCCGTTTTTTTAAGTACTTCCTTGTTTCCGGAGTCACCTAGTGCAG | 14200 fluorescence intensity (a.u.) |
| GGCAGGAAGGTGAAGAGGCAACGAGCCATGGCTAGAGGTTCGGAGTCACCTAGTGCAG | 12300 fluorescence intensity (a.u.) |
| TTTGGACCACTCTTACATCCTTTATATTATCCATCTATTGCGGAGTCACCTAGTGCAG | 8390 fluorescence intensity (a.u.) |
| TCTTAGGGATGTGTTTGGCAAATGGGATATGGGAGGTGGGCGGAGTCACCTAGTGCAG | 11100 fluorescence intensity (a.u.) |
| TAGCTCCAGTATTAATTTCTTTCCATCCTCCATTTTCTTGCGGAGTCACCTAGTGCAG | 9120 fluorescence intensity (a.u.) |
| CCAATGTCAAATTTGTGACTTTCTCGTTACATGTTCAAGGCGGAGTCACCTAGTGCAG | 8100 fluorescence intensity (a.u.) |
| GCTTCACGCCTCTCCTACTGCACATTGCACCTCGAGTCCACGGAGTCACCTAGTGCAG | 8220 fluorescence intensity (a.u.) |
| TGTATTTCTGCATCACTTTCTATTTCATATTCTTCATTCCCGGAGTCACCTAGTGCAG | 8390 fluorescence intensity (a.u.) |
| CACTTCTCTGCAAGCTGGACGGGGTGAGGTGGGAGGGCGGCGGAGTCACCTAGTGCAG | 13700 fluorescence intensity (a.u.) |
| GACCCTACTCTGGGTTGTTACGGGCTTATTCACTTTGTGGCGGAGTCACCTAGTGCAG | 9490 fluorescence intensity (a.u.) |
| GGGCTGACGGGTGGGGTCCATGTTGTTTTCCTCTTAGGCACGGAGTCACCTAGTGCAG | 23000 fluorescence intensity (a.u.) |
| GTAGTTGCCGTATACCCTTCACTTCATTTAATACGTGCGGCGGAGTCACCTAGTGCAG | 8020 fluorescence intensity (a.u.) |
| TACCTTAACTGGTTAATTTCTTCTGTATTTTTTTCCTTATCGGAGTCACCTAGTGCAG | 8470 fluorescence intensity (a.u.) |
| AACGAGTCCCGTCTCTAACCGTACTTCAGTCGCTTGTCTCCGGAGTCACCTAGTGCAG | 10400 fluorescence intensity (a.u.) |
| CGTTCCGTTTTTTGTATGTACTGTGCGTGTTGGGAACCGACGGAGTCACCTAGTGCAG | 10300 fluorescence intensity (a.u.) |
| GGTGACTGACACGTTGGGTCGCTTCATTCCATAGTTAGGCCGGAGTCACCTAGTGCAG | 8810 fluorescence intensity (a.u.) |
| GCTGACATGTGGGTCCCTTTTTTATTTTTTTTACTGGCATCGGAGTCACCTAGTGCAG | 8280 fluorescence intensity (a.u.) |
| CTTCTCTCTCCGCATCCGCCTCCGCAACTGCAAACCGCTGCGGAGTCACCTAGTGCAG | 10900 fluorescence intensity (a.u.) |
| CTCTCTCTCTCTCCCAGCTGGTTCGCGCGGCCACCAAACACGGAGTCACCTAGTGCAG | 10200 fluorescence intensity (a.u.) |

Random excerpt: 3 entries already listed

| Sequence | binding signal |
| --- | --- |
| ACCTCCACGATTTCTCGCGCCGCCGCCGCCGCCGCCGCCGCGGAGTCACCTAGTGCAG | 9420 fluorescence intensity (a.u.) |
| CTTCTCTCTCCGCATCCGCCTCCGCAACTGCAAACCGCTGCGGAGTCACCTAGTGCAG | 10900 fluorescence intensity (a.u.) |
| CACTTCTCTGCAAGCTGGACGGGGTGAGGTGGGAGGGCGGCGGAGTCACCTAGTGCAG | 13700 fluorescence intensity (a.u.) |

Additional results.

| Sequence | binding signal |
| --- | --- |
| TTTAGATGATAGATCTATGGTCCAAATTGTCTTTTCTTTCCGGAGTCACCTAGTGCAG | 8850 fluorescence intensity (a.u.) |
| AAGCCGGCCAGCGCATTTCGCCCTTTCTTTCATGTTGACCCGGAGTCACCTAGTGCAG | 8610 fluorescence intensity (a.u.) |
| ATGAGAAAAAGTCAACGACGTCGTCTATTAAAAAACGGTGCGGAGTCACCTAGTGCAG | 10600 fluorescence intensity (a.u.) |
| TGTTAGCTCAATTTTCCTCGGTTTCATAATCTATCCAATCCGGAGTCACCTAGTGCAG | 9160 fluorescence intensity (a.u.) |
| CTCAGTTCCATCGCCTACTGCTTGATCTTGTAATCTTTGACGGAGTCACCTAGTGCAG | 9090 fluorescence intensity (a.u.) |
| CTCTTGTCATTTCGGCCTATGCGTGTAACTTGTTTTATATCGGAGTCACCTAGTGCAG | 8640 fluorescence intensity (a.u.) |
| CATTTAGGTCCCTTGCCGCCCTGTGGAAGGGCGATTTTTACGGAGTCACCTAGTGCAG | 8250 fluorescence intensity (a.u.) |
| TGTGTATGATTTTTTTATAAATTTTTTGGTGACATTTTTACGGAGTCACCTAGTGCAG | 8420 fluorescence intensity (a.u.) |
| CCTGATCGCCTCCTCCGCCACCGCCGTGTTCGATTCGTCTCGGAGTCACCTAGTGCAG | 9670 fluorescence intensity (a.u.) |
| GCCCATTCGCCCTCGCGCCGCGCCGCGCCGCCCGCCGCCGCGGAGTCACCTAGTGCAG | 8970 fluorescence intensity (a.u.) |
| CTCAACTCAATCGCCCGCGCCTACCGTCGCCCTGCGCCGACGGAGTCACCTAGTGCAG | 12400 fluorescence intensity (a.u.) |
| TTGTTACTTTAATTTGTACATCATCATGCGGGTCCGTATACGGAGTCACCTAGTGCAG | 16600 fluorescence intensity (a.u.) |
| TGATTTATAGCAGCTAGTTGACTCTACTATTGGACTTGCTCGGAGTCACCTAGTGCAG | 9210 fluorescence intensity (a.u.) |
| CCACGCTCTCACTCCTCCACTCCACTCGTCGAGAAAAATGCGGAGTCACCTAGTGCAG | 8490 fluorescence intensity (a.u.) |
| GTTCGTGTCGATTTGACTGTGCGTGTCTCTTATGGAGTTTCGGAGTCACCTAGTGCAG | 11900 fluorescence intensity (a.u.) |
| GCTTCTTCTGTTCTGAAGCAGTGGCTTTTTGTGGTTTATGCGGAGTCACCTAGTGCAG | 8250 fluorescence intensity (a.u.) |
| TAAGTGACTTATCTTTTTAATTTTTTTCATAAGTTTTTTACGGAGTCACCTAGTGCAG | 8660 fluorescence intensity (a.u.) |
| ATCCTCGGCTGTTAAAGTTTGCTTCATACACGATCTGCTTCGGAGTCACCTAGTGCAG | 9860 fluorescence intensity (a.u.) |
| ATCCTGAATTTGATTCCAACGTTTGTAACCGCCTCCAAATCGGAGTCACCTAGTGCAG | 8110 fluorescence intensity (a.u.) |
| CACGCACGCATCTCAAAGCCACACACGCGTCTCCACAACACGGAGTCACCTAGTGCAG | 8660 fluorescence intensity (a.u.) |
| CAGTTCTTATCGTTATATTATTACTAAATAGTGTTCTTTTCGGAGTCACCTAGTGCAG | 8630 fluorescence intensity (a.u.) |
| TCAGCAGCAATGGCGATATCGTTGATTTCACGACCTGCTCCGGAGTCACCTAGTGCAG | 11800 fluorescence intensity (a.u.) |
| TACTTATCGAAATCTTCCGTCATCATCCACCCTTTTATAACGGAGTCACCTAGTGCAG | 8790 fluorescence intensity (a.u.) |
| GTCGAGTGTCAAAATGTGTGTGCTTTTCTGTAACTTGAACCGGAGTCACCTAGTGCAG | 10200 fluorescence intensity (a.u.) |
| AGATTTGCAATATATACTTACTGTCTTACTCACTGCATTTCGGAGTCACCTAGTGCAG | 14500 fluorescence intensity (a.u.) |
| TCTCTGGATTCGCTGTCCAGGGCTGCGCTTGTACACCTACCGGAGTCACCTAGTGCAG | 8240 fluorescence intensity (a.u.) |
| CCCCGATTCTCCTCGCCCCGCCTCAGTCCAACGGTGCTCCCGGAGTCACCTAGTGCAG | 8390 fluorescence intensity (a.u.) |
